From paper PMC10747034 (Tropical Medicine and Infectious Disease, 2023)

Test system: NHDF cells
Experiment: Cytotoxicity assay (MTS, 7 days)
Format: cell-based, Human
Protocol: For that, 96-well tissue plates containing NHDF cells were treated with different concentrations of compounds up to 10 µM for seven days. Control cells were incubated with 0.5% DMSO. At the end of the treatment, cell viability was then analyzed through the colorimetric method of MTS (Promega, Madison, WI, USA). […] Data were analyzed using GraphPad Prim 8.0 software. IC50 and CC50 calculations were performed by fitting the values of proliferation/viability in percentage to a non-linear curve followed by dose–response inhibition analysis through log(inhibitor) vs. normalized response.

Oc1cccc(C(Nc2nccs2)c2ccc3cccnc3c2O)c1 (stereo not shown) [MMV642550]
SI (Selectivity Index, CC50 NHDF cells/IC50 T. gondii): 21

O=S(=O)(Nc1cccc2cccnc12)c1ccccc1 [MMV1578890]
SI (Selectivity Index, CC50 NHDF cells/IC50 T. gondii): 9

CCc1nc(N)nc(N)c1C#CC(C)c1cc(OC)cc(-c2ccncc2)c1 (stereo not shown) [MMV1580844]
SI (Selectivity Index, CC50 NHDF cells/IC50 T. gondii): 7447

Fc1ccc(-c2nc(-c3c[nH]c4ccc(Br)cc34)[nH]c2-c2ccc(F)cc2)cc1 [MMV1593537]
SI (Selectivity Index, CC50 NHDF cells/IC50 T. gondii): 6

Nc1nc(Nc2ccc3nc(-c4ccc(F)cc4)cc(N)c3c2)cc(-c2ccccc2)n1 [MMV1593541]
SI (Selectivity Index, CC50 NHDF cells/IC50 T. gondii): 67

Cc1nc2ccc(Oc3ccccc3)cc2c2c1CCN2CCc1ccccc1 [MMV1634399]
SI (Selectivity Index, CC50 NHDF cells/IC50 T. gondii): 26

COc1ccc2sc3c(c2c1)NC(C)CNC3=O (stereo not shown) [MMV1782115]
SI (Selectivity Index, CC50 NHDF cells/IC50 T. gondii): 58
